# This is one part of the list.
# How the values were obtained:
# Experiment in all cases: glycan array binding signal (z-score within array); higher = stronger binding
# Conditions in all cases: glycan notation: IUPAC condensed, linker removed
# [1] = target: Neu5Ac(a2-6)GlcNAc(b1-4)GlcNAc
# Summary of the method: (§1)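 From the Consortium for Functional Glycomics database, 3228 arrays were curated, keeping only those whose protein sequence was available. Binding is given as a within-array Z-score averaged across arrays sharing a protein sequence and across linkers. Negative Z-scores can be read as non-binding.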
# [2] = target: Neu5Ac(a2-6)GlcNAc(b1-4)GlcNAc(b1-4)GlcNAc
# Summary of the method: as §1
# [3] = target: Neu5Ac(a2-8)Neu5Ac
# Summary of the method: as §1
# [4] = target: Neu5Ac(a2-8)Neu5Ac(a2-3)Gal(b1-3)GalNAc(b1-4)[Neu5Ac(a2-3)]Gal(b1-4)Glc
# Summary of the method: as §1
# [5] = target: Neu5Ac(a2-8)Neu5Ac(a2-3)Gal(b1-3)GalNAc(b1-4)[Neu5Ac(a2-8)Neu5Ac(a2-3)]Gal(b1-4)Glc
# Summary of the method: as §1
# [6] = target: Neu5Ac(a2-8)Neu5Ac(a2-3)Gal(b1-4)Glc
# Summary of the method: as §1
# [7] = target: Neu5Ac(a2-8)Neu5Ac(a2-3)Gal(b1-4)GlcNAc
# Summary of the method: as §1
# [8] = target: Neu5Ac(a2-8)Neu5Ac(a2-3)[Gal(b1-3)GalNAc(b1-4)]Gal(b1-4)Glc
# Summary of the method: as §1
# [9] = target: Neu5Ac(a2-8)Neu5Ac(a2-3)[GalNAc(b1-4)]Gal(b1-4)Glc
# Summary of the method: as §1
# [10] = target: Neu5Ac(a2-8)Neu5Ac(a2-8)Neu5Ac
# Summary of the method: as §1
# [11] = target: Neu5Ac(a2-8)Neu5Ac(a2-8)Neu5Ac(a2-3)Gal(b1-4)Glc
# Summary of the method: as §1
# [12] = target: Neu5Ac(a2-8)Neu5Ac(a2-8)Neu5Ac(a2-3)[Gal(b1-3)GalNAc(b1-4)]Gal(b1-4)Glc
# Summary of the method: as §1
# [13] = target: Neu5Ac(a2-8)Neu5Ac(a2-8)Neu5Ac(a2-3)[GalNAc(b1-4)]Gal(b1-4)Glc
# Summary of the method: as §1
# [14] = target: Neu5Ac(a2-8)Neu5Ac(a2-8)Neu5Ac(a2-8)Neu5Ac(a2-3)[GalNAc(b1-4)]Gal(b1-4)Glc
# Summary of the method: as §1
# [15] = target: Neu5Ac(a2-8)Neu5Gc(a2-3)Gal(b1-4)GlcNAc
# Summary of the method: as §1
# [16] = target: Neu5Ac(b2-6)Gal(b1-4)GlcNAc
# Summary of the method: as §1
# [17] = target: Neu5Ac(b2-6)GalNAc
# Summary of the method: as §1
# [18] = target: Neu5Ac9Ac(a2-3)Gal(b1-3)GlcNAc
# Summary of the method: as §1
# [19] = target: Neu5Ac9Ac(a2-3)Gal(b1-4)GlcNAc
# Summary of the method: as §1
# [20] = target: Neu5Ac9Ac(a2-6)Gal(b1-4)GlcNAc
# Summary of the method: as §1
# [21] = target: Neu5Gc(a2-3)Gal(b1-3)GlcNAc
# Summary of the method: as §1
# [22] = target: Neu5Gc(a2-3)Gal(b1-3)[Fuc(a1-4)]GlcNAc
# Summary of the method: as §1
# [23] = target: Neu5Gc(a2-3)Gal(b1-4)Glc
# Summary of the method: as §1
# [24] = target: Neu5Gc(a2-3)Gal(b1-4)GlcNAc
# Summary of the method: as §1
# [25] = target: Neu5Gc(a2-3)Gal(b1-4)GlcNAc(b1-3)Gal(b1-4)GlcNAc(b1-2)Man(a1-3)[Neu5Gc(a2-3)Gal(b1-4)GlcNAc(b1-3)Gal(b1-4)GlcNAc(b1-2)Man(a1-6)]Man(b1-4)GlcNAc(b1-4)GlcNAc
# Summary of the method: as §1
# [26] = target: Neu5Gc(a2-3)Gal(b1-4)[Fuc(a1-3)]GlcNAc
# Summary of the method: as §1
# [27] = target: Neu5Gc(a2-6)Gal(b1-4)GlcNAc
# Summary of the method: as §1
# [28] = target: Neu5Gc(a2-6)GalNAc
# Summary of the method: as §1
# [29] = target: Neu5Gc(a2-8)Neu5Ac(a2-3)Gal(b1-4)GlcNAc
# Summary of the method: as §1
# [30] = target: Neu5Gc(a2-8)Neu5Gc(a2-3)Gal(b1-4)GlcNAc
# Summary of the method: as §1
# [31] = target: Neu5Gc(a2-8)Neu5Gc(a2-3)Gal(b1-4)GlcNAc(b1-3)Gal(b1-4)GlcNAc
# Summary of the method: as §1
# [32] = target: Neu5Gc(a2-8)Neu5Gc(a2-6)Gal(b1-4)GlcNAc
# Summary of the method: as §1
# [33] = target: Neu5Gc(b2-6)Gal(b1-4)GlcNAc
# Summary of the method: as §1
binder,measurement,setting,value
"CD34 (Homo sapiens), P28906 (protein) MGSSHHHHHHSSGLVPRGSHMSTSLATSPTKPYTSSSPILSDIKAEIKCSGIREVKLTQGICLEQNKTSSCAEFKKDRGEGLARVLCGEEQADADAGAQVCSLLLAQSEVRPQCLLLVLANRTEISSKLQLMKKHQSDLKKLGILDFTEQDVASHQSYSQKT",glycan array binding signal (z-score),[1],0.736
same,glycan array binding signal (z-score),[2],-1.17
same,glycan array binding signal (z-score),[3],-0.312
same,glycan array binding signal (z-score),[4],-1.13
same,glycan array binding signal (z-score),[5],0.671
same,glycan array binding signal (z-score),[6],-0.762
same,glycan array binding signal (z-score),[7],-0.699
same,glycan array binding signal (z-score),[8],-0.858
same,glycan array binding signal (z-score),[9],-0.229
same,glycan array binding signal (z-score),[10],0.347
same,glycan array binding signal (z-score),[11],0.301
same,glycan array binding signal (z-score),[12],-0.565
same,glycan array binding signal (z-score),[13],0.111
same,glycan array binding signal (z-score),[14],0.217
same,glycan array binding signal (z-score),[15],-0.375
same,glycan array binding signal (z-score),[16],-0.354
same,glycan array binding signal (z-score),[17],-0.749
same,glycan array binding signal (z-score),[18],0.396
same,glycan array binding signal (z-score),[19],-0.145
same,glycan array binding signal (z-score),[20],1.28
same,glycan array binding signal (z-score),[21],0.381
same,glycan array binding signal (z-score),[22],0.294
same,glycan array binding signal (z-score),[23],0.439
same,glycan array binding signal (z-score),[24],-0.844
same,glycan array binding signal (z-score),[25],0.16
same,glycan array binding signal (z-score),[26],1.71
same,glycan array binding signal (z-score),[27],-0.001
same,glycan array binding signal (z-score),[28],-0.809
same,glycan array binding signal (z-score),[29],0.077
same,glycan array binding signal (z-score),[30],-0.141
same,glycan array binding signal (z-score),[31],-0.523
same,glycan array binding signal (z-score),[32],-0.041
same,glycan array binding signal (z-score),[33],-0.479

# Reformatted bar-delimited: part of the list above
binder | measurement | setting | value
CD34 (Homo sapiens), P28906 (protein) MGSSHHHHHHSSGLVPRGSHMSTSLATSPTKPYTSSSPILSDIKAEIKCSGIREVKLTQGICLEQNKTSSCAEFKKDRGEGLARVLCGEEQADADAGAQVCSLLLAQSEVRPQCLLLVLANRTEISSKLQLMKKHQSDLKKLGILDFTEQDVASHQSYSQKT | glycan array binding signal (z-score) | [8] | -0.858
same | glycan array binding signal (z-score) | [14] | 0.217
same | glycan array binding signal (z-score) | [22] | 0.294

# Reference: the supplement of paper PMC8728848
